The name of at least one read-out is uncertain. Non-standard residues stand in square brackets, D forms with d. Residues, ends and D or L forms follow the SMILES beside them.
Test: Rheology of cell-encapsulating gels after 4 days of 3D culture
Assay type: physicochemical
Conditions: after 3D culture for 4 days, 0.5 wt % gel
Excerpt: FIGS. 7A-7E. Three-dimensional culturing of HDFs. HDFs were 3D cultured with 0.5 wt % peptide hydrogels or 0.3 wt % collagen hydrogels with Essential 8 Medium. (7A) Live and dead cells were visualized on days 1, 4, and 7, using calcein AM and ethidium homodimer-1 staining, respectively (scale bar=100 μm). (7B) Cell growth was monitored by quantifying cell viability on days 1, 4, and 7. Data are represented as mean±SD of three independent replicates. (7C) A pseudo-colored composite of varying depths (0-500 μm) of Z-stacked images of live cells stained with calcein AM in 0.5% AcVES3-RGDV hydrogels on day 4 (scale bar=100 μm). […] (7D) Z-stack image of cytoskeleton organization in the hydrogels on day 4 with actin and nuclei (scale bar=100 μm) stained. (7E) Shear-thinned recovery of cells encapsulated in 0.5 wt % AcVES3-RGDV hydrogel after 3D culturing for 4 days. Hydrogels were shear-thinned at 1000% strain for 30 s (indicated by dashed line) every 10 min and allowed to recover by reducing the strain to 0.2%.
Rheology measurements of cell-encapsulating gels after 4 days of 3D cell culturing were performed using 8-mm stainless steel parallel plate geometry with a 0.5 mm gap height. A cell-encapsulating gel (100 μL) in a transwell insert (for 24 well plates, Corning) was transferred to the rheometer plate previously equilibrated at 37° C. and oil was placed around the sample. […]

Compound: CC(=O)N[C@H](C(=O)N[C@@H](CCC(=O)O)C(=O)N[C@H](C(=O)N[C@@H](CO)C(=O)N[C@H](C(=O)N[C@@H](CO)C(=O)N[C@H](C(=O)N[C@@H](CCC(=O)O)C(=O)N[C@H](C(=O)N1CCC[C@@H]1C(=O)N1CCC[C@H]1C(=O)N[C@H](C(=O)N[C@@H](CCC(=O)O)C(=O)N[C@H](C(=O)N[C@@H](CO)C(=O)N[C@H](C(=O)N[C@@H](CCC(=O)O)C(=O)N[C@H](C(=O)N[C@@H](CCC(=O)O)C(=O)N[C@H](C(=O)NCC(=O)NCC(=O)NCC(=O)NCC(=O)N[C@@H](CCCNC(=N)N)C(=O)NCC(=O)N[C@@H](CC(=O)O)C(=O)N[C@H](C(N)=O)C(C)C)C(C)C)C(C)C)C(C)C)C(C)C)[C@@H](C)O)C(C)C)C(C)C)C(C)C)C(C)C)C(C)C [AcVES3-RGDV] (Ac-VEVSVSVEV[dP]PTEVSVEVEVGGGGRGDV-NH2)
- shear-thinning recovery after cell encapsulation: retained their shear-thinning recovery property
